PubChem BioAssay AID686938 | Drosophila RNAi Screening Center | 2013
The deposit covers about 23,000 reagents; below is an unselected part of those with a known target gene and a result. Over the whole deposit, 75 (0.33%) got an active call. 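Raw plate signals without normalisation; calls rest on plate z-scores that were not deposited; ratio present for only 364 wells.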 Reagent sequences are not shown. Not given: the dose of the treatment.

- Screen: 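Knock-downs reducing store-operated calcium influx in Drosophila cells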 (primary screen)
- Cells: Drosophila S2R+ cells
- Reagent: long dsRNA against Drosophila genes, about 0.25 µg dsRNA per well, roughly 10,000 cells
- Timing: 5 days of knock-down before the calcium assay
- Treatment: thapsigargin (SERCA pump blocker) to empty calcium stores; entry signal taken 4 min after adding it
- Measured: 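Per-well fluo-4 fluorescence in two replicates, unnormalised, measured in resting cells and 4 min after store depletion by the SERCA blocker thapsigargin; ratio of the two present in few wells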
- Scale: calcium entry signal: higher = stronger calcium signal after store depletion; resting calcium signal: higher = higher resting calcium signal
- Hit rule: 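Called when the plate z-score of the entry-to-rest ratio, mean of duplicates, falls below −3; wells with low overall dye signal (Fmax z below −2) or more than five off-targets excluded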
- Meaning of the calls: active = strongly reduced calcium entry; inactive = no strong reduction

Silencing of CG5937 (GeneID 31537) [DRSC18392] came out at: calcium entry signal, replicate 1 (fluorescence units) = 3.42e7; calcium entry signal, replicate 2 (fluorescence units) = 4.62e7; resting calcium signal, replicate 1 (fluorescence units) = 1.80e7; resting calcium signal, replicate 2 (fluorescence units) = 1.94e7; inactive.
For CG1275 (GeneID 38286) [DRSC08294] the deposit lists calcium entry signal, replicate 1 (fluorescence units) = 4.29e7; calcium entry signal, replicate 2 (fluorescence units) = 4.11e7; resting calcium signal, replicate 1 (fluorescence units) = 1.96e7; resting calcium signal, replicate 2 (fluorescence units) = 2.01e7; inactive.
With knock-down of Mulk (GeneID 326168) [DRSC02658], the record shows calcium entry signal, replicate 1 (fluorescence units) = 3.80e7; resting calcium signal, replicate 1 (fluorescence units) = 1.95e7; inactive.
With knock-down of Fili (GeneID 5740472) [DRSC03907], the screen gave calcium entry signal, replicate 1 (fluorescence units) = 2.56e7; calcium entry signal, replicate 2 (fluorescence units) = 4.42e7; resting calcium signal, replicate 1 (fluorescence units) = 1.25e7; resting calcium signal, replicate 2 (fluorescence units) = 1.78e7; inactive.
Fili (GeneID 5740472) [DRSC04132] gave calcium entry signal, replicate 1 (fluorescence units) = 4.65e7; calcium entry signal, replicate 2 (fluorescence units) = 4.73e7; resting calcium signal, replicate 1 (fluorescence units) = 2.20e7; resting calcium signal, replicate 2 (fluorescence units) = 1.99e7; inactive.
Knock-down of Fili (GeneID 5740472) [DRSC04445] resulted in: calcium entry signal, replicate 1 (fluorescence units) = 4.55e7; calcium entry signal, replicate 2 (fluorescence units) = 4.92e7; resting calcium signal, replicate 1 (fluorescence units) = 2.23e7; resting calcium signal, replicate 2 (fluorescence units) = 2.24e7; inactive.
Muc68Ca (GeneID 2768980) [DRSC10312] scored calcium entry signal, replicate 1 (fluorescence units) = 4.28e7; calcium entry signal, replicate 2 (fluorescence units) = 3.17e7; resting calcium signal, replicate 1 (fluorescence units) = 2.19e7; resting calcium signal, replicate 2 (fluorescence units) = 1.47e7; inactive.
Muc68Ca (GeneID 2768980) [DRSC10313] showed calcium entry signal, replicate 1 (fluorescence units) = 2.16e7; calcium entry signal, replicate 2 (fluorescence units) = 3.00e7; resting calcium signal, replicate 1 (fluorescence units) = 1.14e7; resting calcium signal, replicate 2 (fluorescence units) = 1.29e7; inactive.
For MFS15 (GeneID 37168) [DRSC06523], the values are calcium entry signal, replicate 1 (fluorescence units) = 4.30e7; calcium entry signal, replicate 2 (fluorescence units) = 4.35e7; resting calcium signal, replicate 1 (fluorescence units) = 1.90e7; resting calcium signal, replicate 2 (fluorescence units) = 2.16e7; inactive.
Map60 (GeneID 35991) [DRSC07464] gave calcium entry signal, replicate 1 (fluorescence units) = 3.71e7; calcium entry signal, replicate 2 (fluorescence units) = 3.00e7; resting calcium signal, replicate 1 (fluorescence units) = 1.64e7; resting calcium signal, replicate 2 (fluorescence units) = 1.49e7; inactive.
Against CanA1 (GeneID 43670) [DRSC16600] the deposit lists calcium entry signal, replicate 1 (fluorescence units) = 4.48e7; calcium entry signal, replicate 2 (fluorescence units) = 6.29e7; resting calcium signal, replicate 1 (fluorescence units) = 2.08e7; resting calcium signal, replicate 2 (fluorescence units) = 2.66e7; inactive.
With knock-down of S6KL (GeneID 45970) [DRSC19349], the screen gave calcium entry signal, replicate 1 (fluorescence units) = 5.46e7; calcium entry signal, replicate 2 (fluorescence units) = 3.24e7; resting calcium signal, replicate 1 (fluorescence units) = 2.51e7; resting calcium signal, replicate 2 (fluorescence units) = 1.64e7; inactive.
S6KL (GeneID 45970) [DRSC21578] scored calcium entry signal, replicate 1 (fluorescence units) = 4.34e7; calcium entry signal, replicate 2 (fluorescence units) = 3.35e7; resting calcium signal, replicate 1 (fluorescence units) = 2.37e7; resting calcium signal, replicate 2 (fluorescence units) = 1.64e7; inactive.
After knock-down of S6KL (GeneID 45970) [DRSC23147], the screen gave calcium entry signal, replicate 1 (fluorescence units) = 3.29e7; calcium entry signal, replicate 2 (fluorescence units) = 4.25e7; resting calcium signal, replicate 1 (fluorescence units) = 1.50e7; resting calcium signal, replicate 2 (fluorescence units) = 1.86e7; inactive.

Laid out differently: entries from further up.
| Gene | dsRNA | calcium entry signal, replicate 1 (fluorescence units) | calcium entry signal, replicate 2 (fluorescence units) | resting calcium signal, replicate 1 (fluorescence units) | resting calcium signal, replicate 2 (fluorescence units) | outcome |
| --- | --- | --- | --- | --- | --- | --- |
| CanA1 (GeneID 43670) | DRSC16600 | 4.48e7 | 6.29e7 | 2.08e7 | 2.66e7 | inactive |
| S6KL (GeneID 45970) | DRSC19349 | 5.46e7 | 3.24e7 | 2.51e7 | 1.64e7 | inactive |
